Measurements taken from publication PMC12217353.
Changes are numbered by the printed parent chain. Names and notes keep the numbering of the source. These are yes or no findings as the source states them, for the method shown. In cells and extracts the contact can be indirect. Some results given as binding are weak or reduced against the parent protein; the word gives no strength. Where a sequence is shown, tags or fusion partners need not be part of it.

The chains behind the UniProt entries cited, without tags or fusion partners.
UniProt P13569: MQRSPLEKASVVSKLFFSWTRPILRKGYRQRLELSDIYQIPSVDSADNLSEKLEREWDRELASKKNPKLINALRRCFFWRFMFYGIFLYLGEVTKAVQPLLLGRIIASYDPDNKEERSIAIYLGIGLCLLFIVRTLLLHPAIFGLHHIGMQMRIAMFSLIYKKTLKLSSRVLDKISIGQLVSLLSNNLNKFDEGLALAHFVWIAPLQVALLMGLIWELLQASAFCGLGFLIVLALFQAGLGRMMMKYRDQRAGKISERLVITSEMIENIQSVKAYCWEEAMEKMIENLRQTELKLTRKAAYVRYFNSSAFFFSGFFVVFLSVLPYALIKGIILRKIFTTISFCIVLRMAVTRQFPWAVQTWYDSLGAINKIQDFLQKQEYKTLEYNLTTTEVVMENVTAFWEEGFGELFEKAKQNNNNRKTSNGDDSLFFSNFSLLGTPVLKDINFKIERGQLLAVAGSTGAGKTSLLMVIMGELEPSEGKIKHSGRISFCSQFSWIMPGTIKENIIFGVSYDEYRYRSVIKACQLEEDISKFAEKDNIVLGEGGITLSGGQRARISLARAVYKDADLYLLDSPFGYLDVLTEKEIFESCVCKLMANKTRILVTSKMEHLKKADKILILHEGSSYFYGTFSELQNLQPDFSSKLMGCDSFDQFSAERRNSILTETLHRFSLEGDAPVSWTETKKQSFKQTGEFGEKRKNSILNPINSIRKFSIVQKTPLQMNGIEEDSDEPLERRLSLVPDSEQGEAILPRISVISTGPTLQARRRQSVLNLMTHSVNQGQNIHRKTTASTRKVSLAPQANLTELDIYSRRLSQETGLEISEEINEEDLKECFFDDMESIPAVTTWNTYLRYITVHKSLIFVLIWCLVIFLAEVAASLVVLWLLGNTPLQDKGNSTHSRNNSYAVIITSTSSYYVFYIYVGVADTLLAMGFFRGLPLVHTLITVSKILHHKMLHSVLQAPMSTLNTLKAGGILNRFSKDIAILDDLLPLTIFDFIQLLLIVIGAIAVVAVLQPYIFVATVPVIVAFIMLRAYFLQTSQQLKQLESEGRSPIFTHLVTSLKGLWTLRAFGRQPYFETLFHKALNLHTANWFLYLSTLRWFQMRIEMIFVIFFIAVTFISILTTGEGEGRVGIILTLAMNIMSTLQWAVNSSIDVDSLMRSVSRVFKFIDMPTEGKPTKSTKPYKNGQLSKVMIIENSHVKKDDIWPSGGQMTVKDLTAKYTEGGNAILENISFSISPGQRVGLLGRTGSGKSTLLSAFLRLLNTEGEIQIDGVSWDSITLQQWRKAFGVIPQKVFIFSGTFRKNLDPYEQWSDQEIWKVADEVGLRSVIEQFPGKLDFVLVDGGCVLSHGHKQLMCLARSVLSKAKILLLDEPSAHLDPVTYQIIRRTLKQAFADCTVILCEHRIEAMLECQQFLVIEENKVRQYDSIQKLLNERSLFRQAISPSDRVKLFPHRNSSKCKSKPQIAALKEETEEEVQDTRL
UniProt P26361: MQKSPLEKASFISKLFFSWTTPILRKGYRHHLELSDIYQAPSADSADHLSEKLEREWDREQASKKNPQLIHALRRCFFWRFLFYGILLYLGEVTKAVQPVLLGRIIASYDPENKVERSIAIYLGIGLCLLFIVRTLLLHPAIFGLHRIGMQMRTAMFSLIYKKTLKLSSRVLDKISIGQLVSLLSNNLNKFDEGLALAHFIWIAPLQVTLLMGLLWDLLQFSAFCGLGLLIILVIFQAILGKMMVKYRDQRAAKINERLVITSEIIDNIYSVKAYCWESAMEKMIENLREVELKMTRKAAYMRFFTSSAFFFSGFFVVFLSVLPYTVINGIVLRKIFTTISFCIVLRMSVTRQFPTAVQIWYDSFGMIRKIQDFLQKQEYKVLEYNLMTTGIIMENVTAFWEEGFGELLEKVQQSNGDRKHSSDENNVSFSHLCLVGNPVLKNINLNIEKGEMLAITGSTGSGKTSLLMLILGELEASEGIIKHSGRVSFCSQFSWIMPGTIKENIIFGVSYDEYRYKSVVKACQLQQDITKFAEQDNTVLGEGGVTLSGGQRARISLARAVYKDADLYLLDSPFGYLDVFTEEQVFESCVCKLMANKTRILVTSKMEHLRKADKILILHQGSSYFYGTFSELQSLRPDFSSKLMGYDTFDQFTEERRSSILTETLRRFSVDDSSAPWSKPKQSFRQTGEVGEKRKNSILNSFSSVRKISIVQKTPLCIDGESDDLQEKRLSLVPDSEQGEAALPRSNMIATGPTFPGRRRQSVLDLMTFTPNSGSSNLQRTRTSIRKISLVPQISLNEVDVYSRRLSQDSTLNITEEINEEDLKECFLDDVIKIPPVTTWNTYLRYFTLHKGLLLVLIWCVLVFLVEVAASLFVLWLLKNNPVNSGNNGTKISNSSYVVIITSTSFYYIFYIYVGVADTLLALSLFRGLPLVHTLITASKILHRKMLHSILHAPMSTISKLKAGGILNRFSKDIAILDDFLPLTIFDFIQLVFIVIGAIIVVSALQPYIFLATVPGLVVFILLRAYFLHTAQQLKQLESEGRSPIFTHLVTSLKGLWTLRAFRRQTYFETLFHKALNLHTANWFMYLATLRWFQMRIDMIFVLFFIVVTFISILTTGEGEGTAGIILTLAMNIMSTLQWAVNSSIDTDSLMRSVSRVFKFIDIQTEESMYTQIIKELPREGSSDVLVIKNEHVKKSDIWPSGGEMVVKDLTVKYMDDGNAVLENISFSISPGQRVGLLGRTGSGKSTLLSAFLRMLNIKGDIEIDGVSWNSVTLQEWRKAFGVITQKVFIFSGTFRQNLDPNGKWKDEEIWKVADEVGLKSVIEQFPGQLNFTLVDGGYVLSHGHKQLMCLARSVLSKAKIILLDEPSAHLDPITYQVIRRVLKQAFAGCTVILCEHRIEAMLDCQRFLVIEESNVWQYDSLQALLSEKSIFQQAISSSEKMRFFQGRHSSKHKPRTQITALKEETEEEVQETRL

B1: E3C2C-RFP (domain or fragment, UniProt A0FGR9 754-886)
chain: QLGEIQLTVRYVCLRRCLSVLINGCRNLTPCTSSGADPYVRVYLLPERKWACRKKTSVKRKTLEPLFDETFEFFVPMEEVKKRSLDVAVKNSRPLGSHRRKELGKVLIDLSKEDLIKGFSQWYELTPNGQPRS
B2: E3SMP-Flag (domain or fragment, UniProt A0FGR9 114-293)
chain: DVERVEWANKIISQTWPYLSMIMESKFREKLEPKIREKSIHLRTFTFTKLYFGQKCPRVNGVKAHTNTCNRRRVTVDLQICYIGDCEISVELQKIQAGVNGIQLQGTLRVILEPLLVDKPFVGAVTVFFLQKPHLQINWTGLTNLLDAPGINDVSDSLLEDLIATHLVLPNRVTVPVKKG
B3: E-Syt2-Myc (protein, UniProt A0FGR8 1-921)
chain: MTANRDAALSSHRHPGCAQRPRTPTFASSSQRRSAFGFDDGNFPGLGERSHAPGSRLGARRRAKTARGLRGHRQRGAGAGLSRPGSARAPSPPRPGGPENPGGVLSVELPGLLAQLARSFALLLPVYALGYLGLSFSWVLLALALLAWCRRSRGLKALRLCRALALLEDEERVVRLGVRACDLPAWVHFPDTERAEWLNKTVKHMWPFICQFIEKLFRETIEPAVRGANTHLSTFSFTKVDVGQQPLRINGVKVYTENVDKRQIILDLQISFVGNCEIDLEIKRYFCRAGVKSIQIHGTMRVILEPLIGDMPLVGALSIFFLRKPLLEINWTGLTNLLDVPGLNGLSDTIILDIISNYLVLPNRITVPLVSEVQIAQLRFPVPKGVLRIHFIEAQDLQGKDTYLKGLVKGKSDPYGIIRVGNQIFQSRVIKENLSPKWNEVYEALVYEHPGQELEIELFDEDPDKDDFLGSLMIDLIEVEKERLLDEWFTLDEVPKGKLHLRLEWLTLMPNASNLDKVLTDIKADKDQANDGLSSALLILYLDSARNLPSGKKISSNPNPVVQMSVGHKAQESKIRYKTNEPVWEENFTFFIHNPKRQDLEVEVRDEQHQCSLGNLKVPLSQLLTSEDMTVSQRFQLSNSGPNSTIKMKIALRVLHLEKRERPPDHQHSAQVKRPSVSKEGRKTSIKSHMSGSPGPGGSNTAPSTPVIGGSDKPGMEEKAQPPEAGPQGLHDLGRSSSSLLASPGHISVKEPTPSIASDISLPIATQELRQRLRQLENGTTLGQSPLGQIQLTIRHSSQRNKLIVVVHACRNLIAFSEDGSDPYVRMYLLPDKRRSGRRKTHVSKKTLNPVFDQSFDFSVSLPEVQRRTLDVAVKNSGGFLSKDKGLLGKVLVALASEELAKGWTQWYDLTEDGTRPQAMT
B4: E-Syt3(K123A/I124A) (protein, UniProt A0FGR9 1-886)
chain: MRAEEPCAPGAPSALGAQRTPGPELRLSSQLLPELCTFVVRVLFYLGPVYLAGYLGLSITWLLLGALLWMWWRRNRRGKLGRLAAAFEFLDNEREFISRELRGQHLPAWIHFPDVERVEWANAAISQTWPYLSMIMESKFREKLEPKIREKSIHLRTFTFTKLYFGQKCPRVNGVKAHTNTCNRRRVTVDLQICYIGDCEISVELQKIQAGVNGIQLQGTLRVILEPLLVDKPFVGAVTVFFLQKPHLQINWTGLTNLLDAPGINDVSDSLLEDLIATHLVLPNRVTVPVKKGLDLTNLRFPLPCGVIRVHLLEAEQLAQKDNFLGLRGKSDPYAKVSIGLQHFRSRTIYRNLNPTWNEVFEFMVYEVPGQDLEVDLYDEDTDRDDFLGSLQICLGDVMTNRVVDEWFVLNDTTSGRLHLRLEWLSLLTDQEVLTEDHGGLSTAILVVFLESACNLPRNPFDYLNGEYRAKKLSRFARNKVSKDPSSYVKLSVGKKTHTSKTCPHNKDPVWSQVFSFFVHNVATERLHLKVLDDDQECALGMLEVPLCQILPYADLTLEQRFQLDHSGLDSLISMRLVLRFLQVEERELGSPYTGPEALKKGPLLIKKVATNQGPKAQPQEEGPTDLPCPPDPASDTKDVSRSTTTTTSATTVATEPTSQETGPEPKGKDSAKRFCEPIGEKKSPATIFLTVPGPHSPGPIKSPRPMKCPASPFAWPPKRLAPSMSSLNSLASSCFDLADISLNIEGGDLRRRQLGEIQLTVRYVCLRRCLSVLINGCRNLTPCTSSGADPYVRVYLLPERKWACRKKTSVKRKTLEPLFDETFEFFVPMEEVKKRSLDVAVKNSRPLGSHRRKELGKVLIDLSKEDLIKGFSQWYELTPNGQPRS
B5: native E-Syt3 of mouse submandibular gland (protein, UniProt Q5DTI8 1-891)
chain: MQPEEPCAPSAPGGPDVPERGQRSRDPGPRLSGQLLPELYSFVARVLFYLAPVYLAGYLGLSVTWLLLGALLWMWWRRNRRGKLGRLEAAFEFLEHEREFISRELRGQHLPAWIHFPDVERVEWANKIIIQIWPYLSMIMENKIREKLEPKIREKSIHLRTFTFTKLYFGQKCPKVNGVKVHTDKRNRRKVTLDLQICYIGDCEISVELQKIRGGVSGVQLQGTLRVILEPLLVDKPFIGAVTVFFLQKPHLQINWTGLTNLLDMPGINELSDSLLEDLIAAHLVLPNRVTVPVKKGLDVTNLRVPLPCGVIRVHLLEAKKLAQKDNFLGLGGKSDPYAKVSIGLQHCRSRTIYKNLNPTWNEVFEFMVYEVPGQDLEVDLYDEDTDKDDFLGSLQICLGDVMKNRVVDEWFALNDTTSGRLHLRLEWLSLLTDQEALTENDSGLSTAILVVFLENACNLPRNPFDYLNGEYRAKKLSRFVKNKASRDPSSYVKLTVGKKTFTSKTCPHSKDPVWSQVFSFFVHSVAAEQLCLKVLDDELECALGVLEFPLCRILPCADLTLEQCFQLDHSGLDSLISMRLVLRFLRVEGRELGSPYTGPDALKKGPLFIKKVATNQGCKAPPLNEGLADVTSTSNPASYIKGASKSIDNISAATTDPEPMPEPQGPGPEPKGKDSARGLCESPGKKKNPATTFLTVPGLHSPGPIKSPRPMSRPAFPFAWPLTRVAPSMSSLNSLASSCFDLTDVSLNTEAGDSRQGRLGEIQLTVRYVCLRHCLRVLVNGCRNLTPCTSSGADPYVRIYLLPERRWASRKKTSVKQKTLEPLFDETFEFFVPMGEVQKRSLDVAVKNSRPLGSHRRKELGKVLIDLSKQDLIKGFSQWYELTADGQPRS
B6: E-Syt3-Myc (adenoviral, in mouse submandibular gland) (protein, UniProt A0FGR9 1-886)
chain: B4 chain with A123K, A124I

Each binder was assayed against CFTR-GFP (UniProt P13569) (assay: co-IP; lysates of transfected HEK293T cells (PBS with 1% Triton X-100, phosphatase and protease inhibitors, pH 7.4); antibodies overnight at 4 °C, Sepharose beads for 4 h, three washes, blots; some cells co-expressing E-Syt3 or E3C2C, or depleted of PI(4,5)P2 (FRB + FKBP-5PIPase, 0.5 µM rapamycin for 8 min)).

Row | Binder | binding
1 | B1 | binds
2 | B2 | binds
3 | B3 | binds
4 | B4 | binds

What follows are binders tested against T1, NBCe1-B-eGFP (UniProt Q9Y6R1) in the same assay as above.
T1 sequence: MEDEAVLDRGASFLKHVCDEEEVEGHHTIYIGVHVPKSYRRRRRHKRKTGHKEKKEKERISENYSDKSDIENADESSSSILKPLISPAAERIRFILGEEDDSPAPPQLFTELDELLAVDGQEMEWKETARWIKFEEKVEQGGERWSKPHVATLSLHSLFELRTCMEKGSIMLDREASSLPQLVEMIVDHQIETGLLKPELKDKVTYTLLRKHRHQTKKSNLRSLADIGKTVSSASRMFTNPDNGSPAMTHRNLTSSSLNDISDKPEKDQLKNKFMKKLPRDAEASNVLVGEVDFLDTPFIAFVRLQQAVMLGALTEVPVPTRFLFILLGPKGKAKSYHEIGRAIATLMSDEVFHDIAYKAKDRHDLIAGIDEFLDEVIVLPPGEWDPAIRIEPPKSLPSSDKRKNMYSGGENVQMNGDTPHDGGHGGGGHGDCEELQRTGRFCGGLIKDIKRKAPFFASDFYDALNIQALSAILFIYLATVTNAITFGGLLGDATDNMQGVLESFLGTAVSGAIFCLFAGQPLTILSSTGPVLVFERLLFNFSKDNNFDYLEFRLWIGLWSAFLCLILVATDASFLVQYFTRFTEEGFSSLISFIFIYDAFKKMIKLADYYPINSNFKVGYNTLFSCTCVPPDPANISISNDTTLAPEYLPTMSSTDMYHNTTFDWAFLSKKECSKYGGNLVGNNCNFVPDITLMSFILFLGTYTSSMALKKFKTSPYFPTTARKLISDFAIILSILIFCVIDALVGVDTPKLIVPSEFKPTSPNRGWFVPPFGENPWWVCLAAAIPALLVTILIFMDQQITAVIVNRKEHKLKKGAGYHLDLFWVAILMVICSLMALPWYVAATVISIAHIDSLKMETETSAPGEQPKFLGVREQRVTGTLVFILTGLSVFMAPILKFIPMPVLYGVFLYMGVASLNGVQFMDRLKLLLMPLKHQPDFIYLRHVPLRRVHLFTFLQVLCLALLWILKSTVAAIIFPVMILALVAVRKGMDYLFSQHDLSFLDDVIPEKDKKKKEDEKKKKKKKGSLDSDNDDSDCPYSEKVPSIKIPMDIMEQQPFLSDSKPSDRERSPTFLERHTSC

Row | Binder | binding
5 | B1 | binds
6 | B2 | binds
7 | B3 | binds

These binders were tested against native CFTR of mouse submandibular gland (mouse (endogenous in submandibular gland)) (UniProt P26361) (assay: co-IP; lysates of mouse submandibular glands (two mice), native or 4 days after retrograde ductal infusion of Adv-E-Syt3-Myc; lysis buffer with 1% Triton X-100; antibodies overnight at 4 °C, Sepharose beads).

Row | Binder | binding
8 | B5 | binds
9 | B6 | binds
